Some of the results follow. Repeats in this data set agree poorly, so a single value says little.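 The human kidney-derived cells carry a stably integrated construct of eight TEAD-binding elements driving luciferase, read by luminescence in a drug-repurposing library screen. A compound counts as a hit when its signal is more than five robust Z scores above the plate mean.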
Test system: HEK293A TEAD-LUC reporter
Test: TEAD-luciferase reporter activity (YAP activation), robust Z score vs plate; higher = stronger YAP/TEAD activation
Conditions: 24 h

**Q.** `O=C(Oc1c(Br)cc(Br)c2cccnc12)c1cccc(Cl)c1` was tested. Which TEAD-luciferase reporter activity (compound concentration: 200 nM) did it give?
**A.** inactive: -1.44

**Q.** What about the TEAD-luciferase reporter activity (compound concentration: 2 uM) of the same molecule?
**A.** inactive: -0.31

**Q.** What about the TEAD-luciferase reporter activity (compound concentration: 10 uM) of the same molecule?
**A.** inactive: 0.0672

**Q.** Which results are given for `CCN1CCC(Nc2ccc3c(c2)/C(=C(/c2cccc(F)c2)c2nc(C)c[nH]2)C(=O)N3)CC1`?
**A.** TEAD-luciferase reporter activity (compound concentration: 200 nM): inactive: 2.93; TEAD-luciferase reporter activity (compound concentration: 2 uM): active: 13.5; TEAD-luciferase reporter activity (compound concentration: 10 uM): active: 12.6

**Q.** For `CCN1CCCCC12Cc1ccccc1CN(C(=O)CCC(=O)O)C2` (centres undefined), which TEAD-luciferase reporter activity (compound concentration: 200 nM) is on record?
**A.** inactive: 0.303

**Q.** And the TEAD-luciferase reporter activity (compound concentration: 10 uM)?
**A.** inactive: 0.997

**Q.** With `C(COCC1CO1)OCCOCC1CO1` (centres undefined) as the molecule, how does the TEAD-luciferase reporter activity (compound concentration: 200 nM) read?
**A.** inactive: 1.15

**Q.** And the TEAD-luciferase reporter activity (compound concentration: 2 uM)?
**A.** inactive: 0.0955

**Q.** And the TEAD-luciferase reporter activity (compound concentration: 10 uM)?
**A.** inactive: 0.118

**Q.** With `O=P(O)(O)OC(Cn1cncn1)(Cn1cncn1)c1ccc(F)cc1F` [fosfluconazole] as the molecule, how does the TEAD-luciferase reporter activity (compound concentration: 200 nM) read?
**A.** inactive: 1.23

**Q.** What about the TEAD-luciferase reporter activity (compound concentration: 2 uM) of the same molecule?
**A.** inactive: 1.12

**Q.** And the TEAD-luciferase reporter activity (compound concentration: 10 uM)?
**A.** inactive: 0.367

**Q.** Which results are given for `C[C@]1(c2cc(NC(=O)c3ccc(C#N)cn3)ccc2F)N=C(N)OCC1(F)F`?
**A.** TEAD-luciferase reporter activity (compound concentration: 200 nM): inactive: -1.43; TEAD-luciferase reporter activity (compound concentration: 2 uM): inactive: -0.351; TEAD-luciferase reporter activity (compound concentration: 10 uM): inactive: 1.46

**Q.** For `Cc1ccc(Nc2ncccc2C(=O)O)c(C)c1`, which TEAD-luciferase reporter activity (compound concentration: 200 nM) is on record?
**A.** inactive: 0.00195

**Q.** What about the TEAD-luciferase reporter activity (compound concentration: 2 uM) of the same molecule?
**A.** inactive: 0.0828

**Q.** What about the TEAD-luciferase reporter activity (compound concentration: 10 uM) of the same molecule?
**A.** inactive: 3.44

**Q.** Which results are given for `COc1ccc(Nc2ccc(CCNC[C@H](O)c3ccc(O)c4[nH]c(=O)ccc34)cc2)cc1-c1ccccc1`?
**A.** TEAD-luciferase reporter activity (compound concentration: 200 nM): inactive: -1.06; TEAD-luciferase reporter activity (compound concentration: 2 uM): inactive: -0.696; TEAD-luciferase reporter activity (compound concentration: 10 uM): inactive: -0.646

**Q.** For `O=C(Nc1ccc2ccccc2c1)C(c1csc2ccc(Cl)cc12)P(=O)(O)O` (centres undefined), which TEAD-luciferase reporter activity (compound concentration: 200 nM) is on record?
**A.** inactive: 1.59

**Q.** What about the TEAD-luciferase reporter activity (compound concentration: 2 uM) of the same molecule?
**A.** inactive: -0.0335

**Q.** What about the TEAD-luciferase reporter activity (compound concentration: 10 uM) of the same molecule?
**A.** inactive: 0.995

**Q.** What does the source list for `COC(=O)c1ccccc1O` [methyl salicylate]?
**A.** TEAD-luciferase reporter activity (compound concentration: 200 nM): inactive: 0.992; TEAD-luciferase reporter activity (compound concentration: 2 uM): inactive: -0.301; TEAD-luciferase reporter activity (compound concentration: 10 uM): inactive: 2.75

**Q.** How did the TEAD-luciferase reporter activity (compound concentration: 200 nM) turn out when `Cc1cc2c(OCC(O)CNC(C)CCn3cnc4c3c(=O)n(C)c(=O)n4C)cccc2[nH]1` (centres undefined) was run?
**A.** inactive: -0.00772

**Q.** And the TEAD-luciferase reporter activity (compound concentration: 2 uM)?
**A.** inactive: -0.675

**Q.** What about the TEAD-luciferase reporter activity (compound concentration: 10 uM) of the same molecule?
**A.** inactive: -0.508

**Q.** Which TEAD-luciferase reporter activity (compound concentration: 200 nM) does the source give for `CCCC(O)C(CC)CO` (centres undefined) here?
**A.** inactive: 0.198

**Q.** What about the TEAD-luciferase reporter activity (compound concentration: 2 uM) of the same molecule?
**A.** inactive: -1.01

**Q.** What about the TEAD-luciferase reporter activity (compound concentration: 10 uM) of the same molecule?
**A.** inactive: -0.473

**Q.** Which results are given for `C[C@H](CCC(=O)O)[C@H]1CC[C@H]2[C@@H]3CC[C@@H]4C[C@H](O)CC[C@]4(C)[C@H]3C[C@H](O)[C@]12C` [deoxycholic acid, Kythera]?
**A.** TEAD-luciferase reporter activity (compound concentration: 200 nM): inactive: -1.63; TEAD-luciferase reporter activity (compound concentration: 10 uM): inactive: 2.9

**Q.** With `C[C@H](CCC(=O)O)[C@H]1CC[C@H]2[C@@H]3CC[C@@H]4C[C@H](O)CC[C@]4(C)[C@H]3C[C@H](O)[C@]12C` [deoxycholic acid] as the molecule, how does the TEAD-luciferase reporter activity (compound concentration: 2 uM) read?
**A.** inactive: -0.156

**Q.** For `Cc1c(C(N)=O)cc([N+](=O)[O-])cc1[N+](=O)[O-]`, which TEAD-luciferase reporter activity (compound concentration: 200 nM) is on record?
**A.** inactive: -0.543

**Q.** What about the TEAD-luciferase reporter activity (compound concentration: 10 uM) of the same molecule?
**A.** inactive: 0.645

**Q.** With `Cc1c(C(N)=O)cc([N+](=O)[O-])cc1[N+](=O)[O-]` [Zoalene] as the molecule, how does the TEAD-luciferase reporter activity (compound concentration: 2 uM) read?
**A.** inactive: -0.888

**Q.** Which TEAD-luciferase reporter activity (compound concentration: 200 nM) does the source give for `Oc1c(Cl)cc(Cl)cc1Sc1cc(Cl)cc(Cl)c1O` here?
**A.** inactive: -1.23

**Q.** And the TEAD-luciferase reporter activity (compound concentration: 10 uM)?
**A.** active: 12.8

**Q.** Which TEAD-luciferase reporter activity (compound concentration: 2 uM) does the source give for `Oc1c(Cl)cc(Cl)cc1Sc1cc(Cl)cc(Cl)c1O` [bithionol] here?
**A.** inactive: -1.41

**Q.** Which TEAD-luciferase reporter activity (compound concentration: 200 nM) does the source give for `COc1ccc2c(c1)N(CCCN(C)C)c1ccccc1S2` here?
**A.** inactive: 0.772

**Q.** And the TEAD-luciferase reporter activity (compound concentration: 2 uM)?
**A.** inactive: 1.17

**Q.** What about the TEAD-luciferase reporter activity (compound concentration: 10 uM) of the same molecule?
**A.** inactive: 0.576

**Q.** For `COc1cc2nc(N3CCN(C(=O)C4COc5ccccc5O4)CC3)nc(N)c2cc1OC` (centres undefined) [Doxazosin], which TEAD-luciferase reporter activity (compound concentration: 200 nM) is on record?
**A.** inactive: -0.27

**Q.** And the TEAD-luciferase reporter activity (compound concentration: 10 uM)?
**A.** inactive: 0.349

**Q.** Which TEAD-luciferase reporter activity (compound concentration: 2 uM) does the source give for `COc1cc2nc(N3CCN(C(=O)C4COc5ccccc5O4)CC3)nc(N)c2cc1OC` [(S)-doxazosin] here?
**A.** inactive: 2.84

**Q.** For `CN(Cc1ccccc1)C(=O)[C@H](Cc1ccc2ccccc2c1)N(C)C(=O)[C@@H]1CCCN1c1nc2ccccc2c(=O)[nH]1`, which TEAD-luciferase reporter activity (compound concentration: 200 nM) is on record?
**A.** inactive: 0.654

**Q.** What about the TEAD-luciferase reporter activity (compound concentration: 2 uM) of the same molecule?
**A.** inactive: 0.496

**Q.** What about the TEAD-luciferase reporter activity (compound concentration: 10 uM) of the same molecule?
**A.** inactive: 0.402

**Q.** Which TEAD-luciferase reporter activity (compound concentration: 200 nM) does the source give for `c1ccc2c(CC3=NCCN3)cccc2c1` here?
**A.** inactive: -2.02

**Q.** What about the TEAD-luciferase reporter activity (compound concentration: 2 uM) of the same molecule?
**A.** inactive: 1.93

**Q.** What about the TEAD-luciferase reporter activity (compound concentration: 10 uM) of the same molecule?
**A.** inactive: -1.89

**Q.** Which results are given for `C=CCc1cccc(/C=N\NC(=O)CN2CCN(Cc3ccccc3)CC2)c1O`?
**A.** TEAD-luciferase reporter activity (compound concentration: 200 nM): inactive: -1.23; TEAD-luciferase reporter activity (compound concentration: 2 uM): inactive: -0.388; TEAD-luciferase reporter activity (compound concentration: 10 uM): inactive: -2.59

**Q.** For `NC(=O)CN1Cc2ccccc2OC1=O` [caroxazone], which TEAD-luciferase reporter activity (compound concentration: 200 nM) is on record?
**A.** inactive: 1.51

**Q.** What about the TEAD-luciferase reporter activity (compound concentration: 2 uM) of the same molecule?
**A.** inactive: 0.0218

**Q.** What about the TEAD-luciferase reporter activity (compound concentration: 10 uM) of the same molecule?
**A.** active: 6.32

**Q.** Which results are given for `COc1cc2c(cc1OC)S(=O)(=O)OC(C(=O)NC(C)CC(C)(C)N(C)C)C2` (centres undefined)?
**A.** TEAD-luciferase reporter activity (compound concentration: 200 nM): inactive: -1.02; TEAD-luciferase reporter activity (compound concentration: 2 uM): inactive: 0.476; TEAD-luciferase reporter activity (compound concentration: 10 uM): inactive: 0.316

**Q.** Which TEAD-luciferase reporter activity (compound concentration: 200 nM) does the source give for `COc1ccc2c(OCc3nnc4ccc(-c5ccccc5)nn34)ccnc2c1` here?
**A.** inactive: -0.424

**Q.** And the TEAD-luciferase reporter activity (compound concentration: 2 uM)?
**A.** inactive: 0.13

**Q.** What about the TEAD-luciferase reporter activity (compound concentration: 10 uM) of the same molecule?
**A.** inactive: -0.0342

**Q.** Which TEAD-luciferase reporter activity (compound concentration: 200 nM) does the source give for `CC[C@@H]1CN(C(=O)NCC(F)(F)F)C[C@@H]1c1cnc2cnc3[nH]ccc3n12` [Upadacitinib] here?
**A.** inactive: -1.02

**Q.** What about the TEAD-luciferase reporter activity (compound concentration: 2 uM) of the same molecule?
**A.** inactive: -0.884

**Q.** And the TEAD-luciferase reporter activity (compound concentration: 10 uM)?
**A.** inactive: 1.11

**Q.** What does the source list for `CCC12C=CCN3CC[C@@]4(c5cc([C@@]6(C(=O)OC)C[C@@H]7CN(CCc8c6[nH]c6ccccc86)C[C@](O)(CC)C7)c(OC)cc5N(C=O)[C@H]4[C@@](O)(C(=O)OC)[C@@H]1OC(C)=O)[C@@H]32` (some centres undefined) [vincristine, Liposome Co]?
**A.** TEAD-luciferase reporter activity (compound concentration: 200 nM): inactive: -0.841; TEAD-luciferase reporter activity (compound concentration: 2 uM): inactive: 4.14; TEAD-luciferase reporter activity (compound concentration: 10 uM): active: 11.6
